Results as given in patent US20240207245A1, “METHOD FOR INHIBITING METASTASIS OF TRIPLE-NEGATIVE BREAST CANCER USING ROSOXACIN” (National Yang Ming Chiao Tung University, priority 2022, published 2024).
For at least one compound, name, drawing or mass did not settle the structure.

Tested on: highly metastatic breast cancer cell line (HMB cells)
Experiment: Transwell Matrigel cell invasion assay, LPS-induced, HMB cells
Type: cell-based, human
Conditions: LPS 1 μM + quinolone antibiotic 1 μM, 24 hours, compared with control group H2 (LPS only), FIG. 1
Protocol: In addition, the highly metastatic breast cancer cell line (abbreviated as HMB cells) used in the following experiments was obtained according to the following preparation processes: the MDA-MB-231 cells (2.5×10^6 cells) were injected into the mammary fat pad of a severe combined immune deficient (SCID) mice (purchased from BioLasco Taiwan Co., Ltd; 4 weeks old, with a body weight of approximately 20 g), and the triple-negative breast cancer cells metastasized to the lung of the SCID mice were harvested after 12 weeks. Next, the triple-negative breast cancer cells (2.5×10^6 cells) thus obtained were injected into the mammary fat pad of another SCID mice, and the HMB cells metastasized to the lung of the another SCID mice were harvested after 8 weeks. […]
Subsequently, the culture medium in each Transwell® insert was removed, and the respective Transwell® insert was washed with phosphate-buffered saline (PBS). […] The number of the stained cells was counted under a Leica DMI3000 B inverted microscope (Leica Microsystems, Wetzlar, Germany) at 100× magnification, followed by analysis using Image-Pro Software (version 6.0).
The cell invasion percentage (%) of each group was calculated by substituting the thus obtained number of stained cells into the following Equation (I): […]
The data thus obtained were analyzed according to the method described in section 1 of “General Procedures”.

With CC1COc2c(N3CCN(C)CC3)c(F)cc3c(=O)c(C(=O)O)cn1c23 (stereo not shown) [Ofloxacin] the cell invasion percentage was “substantially similar to that determined in the control group H2”.
